Source: paper PMC8115349
No constants are given. Whether binding was seen depends on the method and setting. In cells and extracts the contact can be indirect. Some results given as binding are weak or reduced against the parent protein; the word gives no strength. For some assays here: Tags and fused reporters may be left off the sequences shown.

Protein sequences, listed by entry. Tags and fused reporters are not part of them. Lines headed by an entry give the natural chain unless they say otherwise; changes in a name come on top.
UniProt Q13546: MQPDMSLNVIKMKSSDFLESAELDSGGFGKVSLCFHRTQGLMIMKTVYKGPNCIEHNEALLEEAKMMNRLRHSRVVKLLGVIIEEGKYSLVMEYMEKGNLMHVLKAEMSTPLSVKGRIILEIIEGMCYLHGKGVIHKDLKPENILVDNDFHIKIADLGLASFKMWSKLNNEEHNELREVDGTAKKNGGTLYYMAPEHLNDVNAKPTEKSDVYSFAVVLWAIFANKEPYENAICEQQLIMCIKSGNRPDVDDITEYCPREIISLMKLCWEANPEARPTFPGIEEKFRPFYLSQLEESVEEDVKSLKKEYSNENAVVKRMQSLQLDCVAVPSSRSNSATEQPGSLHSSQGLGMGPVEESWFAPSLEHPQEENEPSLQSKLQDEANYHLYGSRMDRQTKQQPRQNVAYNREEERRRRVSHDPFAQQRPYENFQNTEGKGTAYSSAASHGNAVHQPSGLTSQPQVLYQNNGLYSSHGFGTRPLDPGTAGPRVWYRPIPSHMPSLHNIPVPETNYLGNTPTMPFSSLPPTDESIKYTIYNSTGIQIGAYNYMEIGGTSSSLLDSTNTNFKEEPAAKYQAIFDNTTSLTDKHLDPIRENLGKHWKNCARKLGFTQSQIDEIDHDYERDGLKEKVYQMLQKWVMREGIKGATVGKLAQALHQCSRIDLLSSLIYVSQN

What was measured:
[1] = molecular target: T1, AQP1-3×FLAG (human) (UniProt P29972); assay: co-IP; co-immunoprecipitation of FLAG from HEK-293T cells expressing AQP1-3×FLAG and RIPK1 or a point mutant; RIPA lysis buffer, protein G agarose beads, overnight at 4 °C; Western blot
T1 sequence: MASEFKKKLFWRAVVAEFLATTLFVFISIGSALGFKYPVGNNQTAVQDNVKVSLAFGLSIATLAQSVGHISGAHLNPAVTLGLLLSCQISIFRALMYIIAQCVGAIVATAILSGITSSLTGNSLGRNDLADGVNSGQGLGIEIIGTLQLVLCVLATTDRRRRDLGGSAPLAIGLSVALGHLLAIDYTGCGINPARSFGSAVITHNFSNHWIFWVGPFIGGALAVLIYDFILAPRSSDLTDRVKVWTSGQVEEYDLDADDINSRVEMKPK

[2] = molecular target: receptor-interacting protein kinase 1 (human (endogenous in TNBC tumor tissue)) (UniProt Q13546); assay: co-IP; co-immunoprecipitation of RIPK1 from RIPA lysates of TNBC tissue; antibody coupled to protein G agarose beads, overnight at 4 °C; Western blot

**Q.** Which binding [1] does the source give for “RIPK1 (wild type, expressed from plasmid) (from UniProt Q13546-1 1-671)” here?
**A.** binds

B1: Aquaporin 1 (protein, UniProt P29972 1-269)
chain: MASEFKKKLFWRAVVAEFLATTLFVFISIGSALGFKYPVGNNQTAVQDNVKVSLAFGLSIATLAQSVGHISGAHLNPAVTLGLLLSCQISIFRALMYIIAQCVGAIVATAILSGITSSLTGNSLGRNDLADGVNSGQGLGIEIIGTLQLVLCVLATTDRRRRDLGGSAPLAIGLSVALGHLLAIDYTGCGINPARSFGSAVITHNFSNHWIFWVGPFIGGALAVLIYDFILAPRSSDLTDRVKVWTSGQVEEYDLDADDINSRVEMKPK
**Q.** Which binding [2] does the source give for B1 here?
**A.** binds
